# The list is a part of this screen's results and no random one: it gathers tests that were run many times, whatever their T/C, doses with no T/C, and many T/C values between a quarter and a half above the control. Other doses and runs of a compound stand elsewhere. T/C gives the treated animals as a percentage of the vehicle group. Some entries give survivors of the animals treated and no T/C: the source files T/C as zero there, which appears to mark a toxic dose or a test without result, not a measured value. Some doses without a T/C left all or most animals alive at the check, yet need not have been tolerated: the source hardly ever lists a survival T/C far under the control, and the zero likely stands for such cases as well. Survivors were counted at the toxicity check, usually on the fifth day, unless a day is given; later deaths do not show. Schedules are NCI's codes, read here as Q, the interval in days (D) or hours (H), X, the number of doses. Counts like (3×) count equal records among those shown. Some doses were run more than once; the results are listed from low to high. Where survival is the endpoint, the PubChem record calls one and a half times the control and up active, and a quarter to a half above the control has no call in these data; cut-offs in other NCI protocols can differ. Some T/C values carry the count of animals alive at the toxicity check (mostly the fifth day); where none is given, no animal had died by that day.
# System: P388 leukemia ip, CD2F1 mice, survival T/C
# Assay: NCI In Vivo Anticancer Drug Screen. Data for tumor model P388 Leukemia (intraperitoneal) in CD2F1 (CDF1) mice
# Settings: T/C endpoint: median survival time, higher T/C = longer survival
# [1] = dose: 25.0 mg/kg/injection, schedule: Q01DX009 (ip), vehicle: saline with Tween-80
# [2] = dose: 50.0 mg/kg/injection, schedule: Q01DX009 (ip), vehicle: saline with Tween-80
# [3] = dose: 100.0 mg/kg/injection, schedule: Q01DX009 (ip), vehicle: saline with Tween-80
# [4] = dose: 150.0 mg/kg/injection, schedule: Q01DX009 (ip), vehicle: water
# [5] = dose: 200.0 mg/kg/injection, schedule: Q01DX009 (ip), vehicle: saline with Tween-80
# [6] = dose: 200.0 mg/kg/injection, schedule: Q01DX009 (ip), vehicle: saline
# [7] = dose: 400.0 mg/kg/injection, schedule: Q04DX003 (ip), vehicle: saline with Tween-80
smiles,measurement,setting,value
CNC(=O)ON(C(C)=O)C(=O)NC,T/C,"dose: 12.5 mg/kg/injection, schedule: Q01DX009 (ip), vehicle: saline with Tween-80",131 % of control
same,T/C,"dose: 12.5 mg/kg/injection, schedule: Q01DX009 (ip), vehicle: saline, evaluated on day 30","114, 117 (2×), 126 % of control"
same,T/C,"dose: 12.5 mg/kg/injection, schedule: Q01DX009 (ip), vehicle: saline, evaluated on day 35",137 % of control
same,T/C,"dose: 20.0 mg/kg/injection, schedule: Q01DX009 (ip), vehicle: saline",127 and 128 % of control
same,T/C,[1],126 % of control
same,T/C,"dose: 25.0 mg/kg/injection, schedule: Q01DX009 (ip), vehicle: saline, evaluated on day 30","124, 125 (2×), 130, 133 % of control"
same,T/C,"dose: 25.0 mg/kg/injection, schedule: Q01DX009 (ip), vehicle: saline, evaluated on day 35",141 % of control
same,T/C,"dose: 25.0 mg/kg/injection, schedule: Q01DX009 (ip), vehicle: water",136 % of control
same,survivor count,"dose: 25.0 mg/kg/injection, schedule: Q03HX015 (ip), vehicle: saline",4 of 10
same,survivor count,"dose: 25.0 mg/kg/injection, schedule: Q03HX015 (ip), vehicle: water",5 of 6
same,T/C,"dose: 40.0 mg/kg/injection, schedule: Q01DX009 (ip), vehicle: saline",129 and 130 % of control
same,T/C,"dose: 50.0 mg/kg/injection, schedule: Q01DX005 (ip), vehicle: saline",129 % of control
same,T/C,[2],141 and 142 % of control
same,T/C,"dose: 50.0 mg/kg/injection, schedule: Q01DX009 (ip), vehicle: saline, evaluated on day 30","126, 133, 135, 140, 146 % of control"
same,T/C,"dose: 50.0 mg/kg/injection, schedule: Q01DX009 (ip), vehicle: saline, evaluated on day 35",95 % of control
same,T/C,"dose: 50.0 mg/kg/injection, schedule: Q01DX009 (ip), vehicle: water",145 % of control
same,survivor count,"dose: 50.0 mg/kg/injection, schedule: Q03HX015 (ip), vehicle: saline",0 of 10
same,survivor count,"dose: 50.0 mg/kg/injection, schedule: Q03HX015 (ip), vehicle: water",0 of 6
same,survivor count,"dose: 80.0 mg/kg/injection, schedule: Q01DX009 (ip), vehicle: saline",1 of 6 and 4 of 6
same,survivor count,"dose: 100.0 mg/kg/injection, schedule: Q01DX005 (ip), vehicle: saline",1 of 10 and 2 of 10
same,survivor count,[3],1 of 6 and 3 of 6
same,survivor count,"dose: 100.0 mg/kg/injection, schedule: Q01DX009 (ip), vehicle: saline","0 of 6, 1 of 10, 2 of 6, 3 of 6, 5 of 6"
same,survivor count,"dose: 100.0 mg/kg/injection, schedule: Q01DX009 (ip), vehicle: water",0 of 6
same,T/C,"dose: 100.0 mg/kg/injection, schedule: Q01DX009 (oral), vehicle: saline",134 % of control
same,survivor count,"dose: 100.0 mg/kg/injection, schedule: Q03HX015 (ip), vehicle: saline",0 of 10
same,T/C,[4],130 % of control
same,survivor count,[4],0 of 6
same,survivor count,"dose: 200.0 mg/kg/injection, schedule: Q01DX001 (ip), vehicle: saline",2 of 10
same,survivor count,"dose: 200.0 mg/kg/injection, schedule: Q01DX005 (ip), vehicle: saline",0 of 10 (2×)
same,T/C,"dose: 200.0 mg/kg/injection, schedule: Q01DX005 (iv), vehicle: saline",125 % of control [8 of 10 alive]
same,survivor count,[5],0 of 6
same,survivor count,[6],0 of 6
same,survivor count,"dose: 200.0 mg/kg/injection, schedule: Q01DX009 (ip), vehicle: water",0 of 6
same,T/C,"dose: 200.0 mg/kg/injection, schedule: Q01DX009 (oral), vehicle: saline",142 % of control [9 of 10 alive]
same,survivor count,"dose: 400.0 mg/kg/injection, schedule: Q01DX001 (ip), vehicle: saline",0 of 10
same,survivor count,"dose: 400.0 mg/kg/injection, schedule: Q01DX001 (iv), vehicle: saline",0 of 10
same,survivor count,"dose: 400.0 mg/kg/injection, schedule: Q01DX005 (ip), vehicle: saline",0 of 10
same,survivor count,"dose: 400.0 mg/kg/injection, schedule: Q01DX005 (iv), vehicle: saline",0 of 10
N#CC1(C#N)C2C=CC(C3CCC=C32)C1(C#N)C#N (configuration not stated),survivor count,"dose: 50.0 mg/kg/injection, schedule: Q01DX009 (ip), vehicle: Klucel (hydroxypropylcellulose) (HPC)",1 of 6
COc1cccc2c1C(=O)c1c(O)c3c(c(O)c1C2=O)C[C@@](O)(/C(CO)=N/NC(=O)c1ccc(Cl)c(Cl)c1)C[C@@H]3OC1CC(N)C(O)C(C)O1 (some centres not stated),T/C,"dose: 0.25 mg/kg/injection, schedule: Q01DX009 (ip), vehicle: water",125 % of control
same,T/C,"dose: 0.5 mg/kg/injection, schedule: Q01DX009 (ip), vehicle: water, evaluated on day 30",143 % of control
same,T/C,"dose: 0.5 mg/kg/injection, schedule: Q01DX009 (ip), vehicle: water, evaluated on day 45",137 % of control
same,T/C,"dose: 4.0 mg/kg/injection, schedule: Q04DX003 (ip), vehicle: saline",128 % of control
same,T/C,"dose: 6.25 mg/kg/injection, schedule: Q04DX003 (ip), vehicle: water",132 % of control
same,T/C,"dose: 8.0 mg/kg/injection, schedule: Q04DX003 (ip), vehicle: saline","100, 118, 126, 146 % of control"
same,survivor count,"dose: 16.0 mg/kg/injection, schedule: Q01DX009 (ip), vehicle: water",6 of 6 (2×)
same,T/C,"dose: 16.0 mg/kg/injection, schedule: Q04DX003 (ip), vehicle: saline","125, 126, 128, 181 % of control"
same,T/C,"dose: 32.0 mg/kg/injection, schedule: Q04DX003 (ip), vehicle: saline","127, 131, 146, 172 % of control"
same,T/C,"dose: 50.0 mg/kg/injection, schedule: Q04DX003 (ip), vehicle: water",126 and 135 % of control
same,T/C,"dose: 64.0 mg/kg/injection, schedule: Q04DX003 (ip), vehicle: saline","131, 137 (2×), 163 % of control"
same,T/C,"dose: 128.0 mg/kg/injection, schedule: Q04DX003 (ip), vehicle: saline","134, 155 (2×), 168 % of control"
same,T/C,"dose: 256.0 mg/kg/injection, schedule: Q04DX003 (ip), vehicle: saline","126, 128, 136, 137 % of control"
same,T/C,"dose: 512.0 mg/kg/injection, schedule: Q04DX003 (ip), vehicle: saline",126 % of control
same,survivor count,"dose: 2048.0 mg/kg/injection, schedule: Q04DX003 (ip), vehicle: saline",6 of 6 on day 9
COCCOC(C)C(=O)C(O)S(=O)(=O)O (configuration not stated),T/C,[6],127 % of control
CCN(CC)CCOC(=O)c1ccc(N)cc1,survivor count,[6],0 of 6
CCCCOC(=O)/C=C(\Cl)C(=O)OCCCC,T/C,[2],"116, 118 (2×), 120 % of control"
same,survivor count,[3],3 of 6
same,survivor count,[5],0 of 6
CC1(C)N=C(N)N=C(N)N1c1ccc(F)cc1,survivor count,"dose: 50.0 mg/kg/injection, schedule: Q01DX005 (ip), vehicle: Klucel (hydroxypropylcellulose) (HPC)",0 of 6
CN(C)c1ccc(/C=N/NC(=O)c2ccccc2N)c(Cl)c1,survivor count,"dose: 240.0 mg/kg/injection, schedule: Q01DX005 (ip), vehicle: saline with Tween-80",6 of 6
C/C=C/C=C/C1=C2C(=O)N(c3ccccc3)N=C2CC(C)O1 (configuration not stated),survivor count,"dose: 200.0 mg/kg/injection, schedule: Q01DX005 (ip), vehicle: Klucel (hydroxypropylcellulose) (HPC)",3 of 6
C=C(C)c1nc(Oc2ccccc2)nc(Oc2ccccc2)n1,survivor count,"dose: 100.0 mg/kg/injection, schedule: Q01DX001 (ip), vehicle: Klucel (hydroxypropylcellulose) (HPC)",6 of 6
CC(=O)C1=C(C)NC(C)=C(C(C)=O)C1c1cccc([N+](=O)[O-])c1,survivor count,"dose: 200.0 mg/kg/injection, schedule: Q04DX003 (ip), vehicle: saline with Tween-80",6 of 6
same,survivor count,[7],6 of 6
CC[C@H](CC[C@@H](C)C1CC[C@H]2[C@@H]3CC=C4C[C@@H](OP(=O)(N5CC5)N5CC5)CC[C@]4(C)[C@H]3CC[C@]12C)C(C)C (some centres not stated),T/C,[1],126 % of control
same,T/C,[2],130 and 134 % of control
same,T/C,[3],149 % of control
Cc1cc(SCC(=O)c2ccc(Br)cc2)cc(C)[o+]1,survivor count,[5],3 of 6
same,survivor count,[7],6 of 6
COc1cc(C(C)(C)C)cc(OC)c1C(O)(c1c(OC)cc(C(C)(C)C)cc1OC)c1c(OC)cc(C(C)(C)C)cc1OC,T/C,[2],135 % of control [5 of 6 alive]
same,survivor count,[5],0 of 6

# — PubChem BioAssay AID330 (DTP/NCI, 2004)
